Measurements from doi:10.1101/059964.

Sequences of proteins named here, by UniProt entry; tags and fusion partners are left off.
UniProt Q15022: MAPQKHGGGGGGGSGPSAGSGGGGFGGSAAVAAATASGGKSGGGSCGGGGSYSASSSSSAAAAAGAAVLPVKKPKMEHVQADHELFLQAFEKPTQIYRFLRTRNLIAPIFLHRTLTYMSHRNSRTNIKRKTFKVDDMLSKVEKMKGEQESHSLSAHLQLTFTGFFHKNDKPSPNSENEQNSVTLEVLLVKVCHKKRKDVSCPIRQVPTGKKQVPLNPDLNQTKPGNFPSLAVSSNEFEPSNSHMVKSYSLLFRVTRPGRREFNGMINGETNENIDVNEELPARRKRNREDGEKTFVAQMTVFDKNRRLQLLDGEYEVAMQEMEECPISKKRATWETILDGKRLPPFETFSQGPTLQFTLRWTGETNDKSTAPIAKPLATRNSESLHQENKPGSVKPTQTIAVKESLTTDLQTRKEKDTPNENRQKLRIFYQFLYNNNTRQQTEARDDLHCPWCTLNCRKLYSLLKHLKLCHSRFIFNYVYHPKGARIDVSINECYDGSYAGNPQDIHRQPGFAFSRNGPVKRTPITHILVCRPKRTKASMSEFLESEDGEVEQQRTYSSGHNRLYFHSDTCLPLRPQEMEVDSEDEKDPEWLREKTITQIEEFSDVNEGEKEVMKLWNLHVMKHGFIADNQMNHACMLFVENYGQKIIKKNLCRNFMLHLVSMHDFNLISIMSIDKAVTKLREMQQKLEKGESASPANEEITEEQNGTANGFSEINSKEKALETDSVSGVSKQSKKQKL
UniProt Q92800: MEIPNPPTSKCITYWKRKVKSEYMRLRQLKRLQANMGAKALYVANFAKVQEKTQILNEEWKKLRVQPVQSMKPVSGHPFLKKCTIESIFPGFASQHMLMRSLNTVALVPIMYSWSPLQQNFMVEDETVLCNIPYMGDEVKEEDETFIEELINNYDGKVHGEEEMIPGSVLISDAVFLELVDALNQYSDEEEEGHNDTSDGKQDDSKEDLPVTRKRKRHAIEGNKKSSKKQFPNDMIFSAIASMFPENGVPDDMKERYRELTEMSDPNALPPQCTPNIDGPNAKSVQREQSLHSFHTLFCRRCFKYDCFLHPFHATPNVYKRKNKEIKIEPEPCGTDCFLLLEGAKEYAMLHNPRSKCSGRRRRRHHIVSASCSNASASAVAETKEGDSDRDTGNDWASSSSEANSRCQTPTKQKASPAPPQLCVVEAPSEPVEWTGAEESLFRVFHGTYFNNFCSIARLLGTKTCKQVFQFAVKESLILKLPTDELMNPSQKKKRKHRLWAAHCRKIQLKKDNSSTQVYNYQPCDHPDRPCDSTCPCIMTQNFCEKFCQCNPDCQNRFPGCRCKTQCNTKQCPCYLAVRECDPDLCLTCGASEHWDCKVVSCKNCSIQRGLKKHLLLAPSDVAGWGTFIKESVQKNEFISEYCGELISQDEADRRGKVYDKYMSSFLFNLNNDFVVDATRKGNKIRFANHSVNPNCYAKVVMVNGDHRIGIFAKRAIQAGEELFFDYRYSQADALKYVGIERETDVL
UniProt Q13185: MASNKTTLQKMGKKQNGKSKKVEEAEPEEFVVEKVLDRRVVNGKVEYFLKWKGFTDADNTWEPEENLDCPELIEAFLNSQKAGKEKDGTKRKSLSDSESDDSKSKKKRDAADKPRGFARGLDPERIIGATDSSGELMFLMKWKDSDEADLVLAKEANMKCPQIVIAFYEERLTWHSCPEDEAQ
UniProt P45973: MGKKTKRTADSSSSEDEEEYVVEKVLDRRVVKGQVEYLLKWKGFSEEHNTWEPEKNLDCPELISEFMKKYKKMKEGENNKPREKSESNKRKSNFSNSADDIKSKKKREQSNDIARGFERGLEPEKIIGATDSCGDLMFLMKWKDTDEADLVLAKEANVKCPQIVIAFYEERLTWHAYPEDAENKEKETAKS
UniProt P83916: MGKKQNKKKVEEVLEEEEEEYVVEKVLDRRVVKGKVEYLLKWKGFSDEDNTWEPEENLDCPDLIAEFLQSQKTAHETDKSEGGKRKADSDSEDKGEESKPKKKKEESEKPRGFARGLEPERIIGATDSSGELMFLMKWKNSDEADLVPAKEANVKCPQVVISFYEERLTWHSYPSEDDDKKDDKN
UniProt Q96KQ7: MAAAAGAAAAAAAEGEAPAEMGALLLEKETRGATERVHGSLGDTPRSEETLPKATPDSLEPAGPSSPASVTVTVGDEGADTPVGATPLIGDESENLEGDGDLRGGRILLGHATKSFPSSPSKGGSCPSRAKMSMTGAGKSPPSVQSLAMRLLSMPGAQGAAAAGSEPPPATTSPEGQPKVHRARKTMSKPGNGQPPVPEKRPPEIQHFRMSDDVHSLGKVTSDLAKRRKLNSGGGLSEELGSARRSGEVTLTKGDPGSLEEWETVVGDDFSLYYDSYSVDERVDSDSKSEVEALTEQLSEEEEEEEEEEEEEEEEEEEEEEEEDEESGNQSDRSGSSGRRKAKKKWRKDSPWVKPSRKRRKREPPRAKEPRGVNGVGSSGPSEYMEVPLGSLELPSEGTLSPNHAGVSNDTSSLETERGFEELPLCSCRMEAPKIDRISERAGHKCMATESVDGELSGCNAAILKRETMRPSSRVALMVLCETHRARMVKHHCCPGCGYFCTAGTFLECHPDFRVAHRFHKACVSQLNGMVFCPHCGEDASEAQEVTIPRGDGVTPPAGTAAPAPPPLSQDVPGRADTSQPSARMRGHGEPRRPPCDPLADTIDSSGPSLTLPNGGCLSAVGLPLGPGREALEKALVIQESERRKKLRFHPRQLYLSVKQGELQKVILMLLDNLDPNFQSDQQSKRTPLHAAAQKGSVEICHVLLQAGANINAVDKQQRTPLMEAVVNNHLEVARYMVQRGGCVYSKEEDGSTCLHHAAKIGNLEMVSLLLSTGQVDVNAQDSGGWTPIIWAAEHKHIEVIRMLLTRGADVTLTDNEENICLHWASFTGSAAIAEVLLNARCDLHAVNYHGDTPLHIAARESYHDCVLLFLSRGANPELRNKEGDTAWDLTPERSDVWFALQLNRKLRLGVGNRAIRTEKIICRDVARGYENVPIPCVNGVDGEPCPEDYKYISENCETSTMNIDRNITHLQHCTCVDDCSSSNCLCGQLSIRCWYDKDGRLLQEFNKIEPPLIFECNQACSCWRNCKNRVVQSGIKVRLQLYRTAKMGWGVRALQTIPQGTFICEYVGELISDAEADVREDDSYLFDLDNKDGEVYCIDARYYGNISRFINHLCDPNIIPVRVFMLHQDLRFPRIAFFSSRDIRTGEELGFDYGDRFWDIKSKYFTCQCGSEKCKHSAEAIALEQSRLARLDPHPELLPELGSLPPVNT

Key:
Assay in all cases: affinity purification with mass spectrometry
SUZ12 (human) = SUZ12 (human) (UniProt Q15022)
EZH1 (human) = EZH1 (human) (UniProt Q92800)
CBX3 (human) = CBX3 (human) (UniProt Q13185)
CBX5 (human) = CBX5 (human) (UniProt P45973)
CBX5 (human), P45973 = details: remark: other sources report otherwise
CBX1 (human) = CBX1 (human) (UniProt P83916)
EHMT2 (human) = EHMT2 (human) (UniProt Q96KQ7)

binding (SUZ12 (human)): binds
binding (EZH1 (human)): binds
B1: SKI/DAC domain containing protein 1 (SKDA1) (protein, UniProt Q1XH10 1-908)
chain: MGDLKSGFEEVDGVRLGYLIIKGKQMFALSQVFTDLLKNIPRTTVHKRMDHLKVKKHHCDLEELRKLKAINSIAFHAAKCTLISREDVEALYTSCKTERVLKTKRRRVGRALATKAPPPERAAAASPRPGFWKDKHQLWRGLSGAARPLPISAQSQRPGAAAARPAAHLPQIFSKYPGSHYPEIVRSPCKPPLNYETAPLQGNYVAFPSDPAYFRSLLCSKHPAAAAAAAAAAAAAAAAAAAAAYYQVSAAGPQPKAAAGAGGPGSLSYRCKRKRGGAKDCLLAPHAGARRLLLLPRSYKAKAAAAAAAAAAAAAAAAGATCLERFHLVNGFCPPPHHHHHHHHHHHHHHHRAQPPQQSHHPPHHHRPQPHLGSFPESCSSDSESSSYSDHAANDSDFGSSLSSSSNSVSSEEEEEEGEEEEEEEEEEGGSGASDSSEVSSEEEDSSTESDSSSGSSQVSVQSIRFRRTSFCKPPSVQAQANFLYHLASAAAATKPAAFEDAGRLPDLKSSVKAESPAEWNLQSWAPKASPVYCPASLGSCFAEIRNDRVSEITFPHSEISNAVKRTDLTINCLAEGASSPSPKTNNAFPQQRILREARKCLQTTPTTHCADNNTIAARFLNNDSSGAEANSEKYSKILHCPEFATDLPSSQTDPEVNAAGAAATKAENPCTDTGDKTLPFLHNIKIKVEDSSANEEYEPHLFTNKLKCECNDTKGEFYSVTESKEEDALLTTAKEGFACPEKETPSLNPLAQSQGLSCTLGSPKPEDGEYKFGARVRKNYRTLVLGKRPVLQTPPVKPNLKSARSPRPTGKTETNEGTLDDFTVINRRKKVASNVASAVKRPFHFMANFPCPPSLIIGRDGDLWPAYSLNTTKDSQTPHKAHPIWKWQLGGSAIPLPPSHKFRKFNS

binding (CBX1 (human)): binds
binding (CBX3 (human)): binds
binding (EHMT2 (human)): binds
B4: ZN644 (protein, UniProt Q9H582 1-1327)
chain: MRSFLQQDVNKTKSRLNVLNGLANNMDDLKINTDITGAKEELLDDNNFISDKESGVHKPKDCQTSFQKNNTLTLPEELSKDKSENALSGGQSSLFIHAGAPTVSSENFILPKGAAVNGPVSHSSLTKTSNMNKGSVSLTTGQPVDQPTTESCSTLKVAADLQLSTPQKASQHQVLFLLSDVAHAKNPTHSNKKLPTSASVGCDIQNSVGSNIKSDGTLINQVEVGEDGEDLLVKDDCVNTVTGISSGTDGFRSENDTNWDPQKEFIQFLMTNEETVDKAPPHSKIGLEKKRKRKMDVSKITRYTEDCFSDSNCVPNKSKMQEVDFLEQNEELQAVDSQKYALSKVKPESTDEDLESVDAFQHLIYNPDKCGEESSPVHTSTFLSNTLKKKCEESDSESPATFSTEEPSFYPCTKCNVNFREKKHLHRHMMYHLDGNSHFRHLNVPRPYACRECGRTFRDRNSLLKHMIIHQERRQKLMEEIRELKELQDEGRSARLQCPQCVFGTNCPKTFVQHAKTHEKDKRYYCCEECNFMAVTENELECHRGIAHGAVVKCPMVTSDIAQRKTQKKTFMKDSVVGSSKKSATYICKMCPFTTSAKSVLKKHTEYLHSSSCVDSFGSPLGLDKRKNDILEEPVDSDSTKTLTKQQSTTFPKNSALKQDVKRTFGSTSQSSSFSKIHKRPHRIQKARKSIAQSGVNMCNQNSSPHKNVTIKSSVDQKPKYFHQAAKEKSNAKANSHYLYRHKYENYRMIKKSGESYPVHFKKEEASSLNSLHLFSSSSNSHNNFISDPHKPDAKRPESFKDHRRVAVKRVIKESKKESSVGGEDLDSYPDFLHKMTVVVLQKLNSAEKKDSYETEDESSWDNVELGDYTTQAIEDETYSDINQEHVNLFPLFKSKVEGQEPGENATLSYDQNDGFYFEYYEDTGSNNFLHEIHDPQHLETADASLSKHSSVFHWTDLSLEKKSCPYCPATFETGVGLSNHVRGHLHRAGLSYEARHVVSPEQIATSDKMQHFKRTGTGTPVKRVRKAIEKSETTSEHTCQLCGGWFDTKIGLSNHVRGHLKRLGKTKWDAHKSPICVLNEMMQNEEKYEKILKALNSRRIIPRPFVAQKLASSDDFISQNVIPLEAYRNGLKTEALSVSASEEEGLNFLNEYDETKPELPSGKKNQSLTLIELLKNKRMGEERNSAISPQKIHNQTARKRFVQKCVLPLNEDSPLMYQPQKMDLTMHSALDCKQKKSRSRSGSKKKMLTLPHGADEVYILRCRFCGLVFRGPLSVQEDWIKHLQRHIVNANLPRTGAGMVEVTSLLKKPASITETSFSLLMAEAAS

Continued, binder first:

B2: SENP7 (protein, UniProt Q9BQF6 1-1050)
chain: MDKRKLGRRPSSSEIITEGKRKKSSSDLSEIRKMLNAKPEDVHVQSPLSKFRSSERWTLPLQWERSLRNKVISLDHKNKKHIRGCPVTSKSSPERQLKVMLTNVLWTDLGRKFRKTLPRNDANLCDANKVQSDSLPSTSVDSLETCQKLEPLRQSLNLSERIPRVILTNVLGTELGRKYIRTPPVTEGSLSDTDNLQSEQLSSSSDGSLESYQNLNPHKSCYLSERGSQRSKTVDDNSAKQTAHNKEKRRKDDGISLLISDTQPEDLNSGSRGCDHLEQESRNKDVKYSDSKVELTLISRKTKRRLRNNLPDSQYCTSLDKSTEQTKKQEDDSTISTEFEKPSENYHQDPKLPEEITTKPTKSDFTKLSSLNSQELTLSNATKSASAGSTTETVENSNSIDIVGISSLVEKDENELNTIEKPILRGHNEGNQSLISAEPIVVSSDEEGPVEHKSSEILKLQSKQDRETTNENESTSESALLELPLITCESVQMSSELCPYNPVMENISSIMPSNEMDLQLDFIFTSVYIGKIKGASKGCVTITKKYIKIPFQVSLNEISLLVDTTHLKRFGLWKSKDDNHSKRSHAILFFWVSSDYLQEIQTQLEHSVLSQQSKSSEFIFLELHNPVSQREELKLKDIMTEISIISGELELSYPLSWVQAFPLFQNLSSKESSFIHYYCVSTCSFPAGVAVAEEMKLKSVSQPSNTDAAKPTYTFLQKQSSGCYSLSITSNPDEEWREVRHTGLVQKLIVYPPPPTKGGLGVTNEDLECLEEGEFLNDVIIDFYLKYLILEKASDELVERSHIFSSFFYKCLTRKENNLTEDNPNLSMAQRRHKRVRTWTRHINIFNKDYIFVPVNESSHWYLAVICFPWLEEAVYEDFPQTVSQQSQAQQSQNDNKTIDNDLRTTSTLSLSAEDSQSTESNMSVPKKMCKRPCILILDSLKAASVQNTVQNLREYLEVEWEVKLKTHRQFSKTNMVDLCPKVPKQDNSSDCGVYLLQYVESFFKDPIVNFELPIHLEKWFPRHVIKTKREDIRELILKLHLQQQKGSSS
binding (CBX3 (human)): binds
binding (CBX5 (human)): binds

B3: EHMT1, Q9H9B1 1-1298 (protein)
chain: MAAADAEAVPARGEPQQDCCVKTELLGEETPMAADEGSAEKQAGEAHMAADGETNGSCENSDASSHANAAKHTQDSARVNPQDGTNTLTRIAENGVSERDSEAAKQNHVTADDFVQTSVIGSNGYILNKPALQAQPLRTTSTLASSLPGHAAKTLPGGAGKGRTPSAFPQTPAAPPATLGEGSADTEDRKLPAPGADVKVHRARKTMPKSVVGLHAASKDPREVREARDHKEPKEEINKNISDFGRQQLLPPFPSLHQSLPQNQCYMATTKSQTACLPFVLAAAVSRKKKRRMGTYSLVPKKKTKVLKQRTVIEMFKSITHSTVGSKGEKDLGASSLHVNGESLEMDSDEDDSEELEEDDGHGAEQAAAFPTEDSRTSKESMSEADRAQKMDGESEEEQESVDTGEEEEGGDESDLSSESSIKKKFLKRKGKTDSPWIKPARKRRRRSRKKPSGALGSESYKSSAGSAEQTAPGDSTGYMEVSLDSLDLRVKGILSSQAEGLANGPDVLETDGLQEVPLCSCRMETPKSREITTLANNQCMATESVDHELGRCTNSVVKYELMRPSNKAPLLVLCEDHRGRMVKHQCCPGCGYFCTAGNFMECQPESSISHRFHKDCASRVNNASYCPHCGEESSKAKEVTIAKADTTSTVTPVPGQEKGSALEGRADTTTGSAAGPPLSEDDKLQGAASHVPEGFDPTGPAGLGRPTPGLSQGPGKETLESALIALDSEKPKKLRFHPKQLYFSARQGELQKVLLMLVDGIDPNFKMEHQNKRSPLHAAAEAGHVDICHMLVQAGANIDTCSEDQRTPLMEAAENNHLEAVKYLIKAGALVDPKDAEGSTCLHLAAKKGHYEVVQYLLSNGQMDVNCQDDGGWTPMIWATEYKHVDLVKLLLSKGSDINIRDNEENICLHWAAFSGCVDIAEILLAAKCDLHAVNIHGDSPLHIAARENRYDCVVLFLSRDSDVTLKNKEGETPLQCASLNSQVWSALQMSKALQDSAPDRPSPVERIVSRDIARGYERIPIPCVNAVDSEPCPSNYKYVSQNCVTSPMNIDRNITHLQYCVCIDDCSSSNCMCGQLSMRCWYDKDGRLLPEFNMAEPPLIFECNHACSCWRNCRNRVVQNGLRARLQLYRTRDMGWGVRSLQDIPPGTFVCEYVGELISDSEADVREEDSYLFDLDNKDGEVYCIDARFYGNVSRFINHHCEPNLVPVRVFMAHQDLRFPRIAFFSTRLIEAGEQLGFDYGERFWDIKGKLFSCRCGSPKCRHSSAALAQRQASAAQEAQEDGLPDTSSAAAADPL
binding (CBX5 (human), P45973): no binding

These are yes or no findings as the source states them, for the method shown. In cells and extracts the contact can be indirect. Here binding means that the protein was enriched with, or labelled near, the bait; the list need not be complete. For some assays here: A no says only that the protein was not detected with the bait. Each block holds one binder with its values, some of them ahead of it.
